Publication PMC10066265, “Inhibitor-3 inhibits Protein Phosphatase 1 via a metal binding dynamic protein–protein interaction” (Nature Communications, 2023)
These are yes or no findings as the source states them, for the method shown.

Chains of the proteins cited; added tags and fusions are not shown. Lines headed by an entry give the natural chain unless they say otherwise; changes in a name come on top. Residues count along the entry.
UniProt P62136, residues 7-330: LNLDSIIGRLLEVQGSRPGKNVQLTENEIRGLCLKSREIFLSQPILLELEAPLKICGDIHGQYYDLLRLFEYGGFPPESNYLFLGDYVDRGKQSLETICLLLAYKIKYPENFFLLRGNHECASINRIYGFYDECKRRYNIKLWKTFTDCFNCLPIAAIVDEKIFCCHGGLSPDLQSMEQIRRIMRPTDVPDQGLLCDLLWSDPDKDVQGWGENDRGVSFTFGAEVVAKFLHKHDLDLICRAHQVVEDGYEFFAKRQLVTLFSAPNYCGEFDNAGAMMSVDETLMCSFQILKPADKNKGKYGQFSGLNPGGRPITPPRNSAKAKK
UniProt O60927: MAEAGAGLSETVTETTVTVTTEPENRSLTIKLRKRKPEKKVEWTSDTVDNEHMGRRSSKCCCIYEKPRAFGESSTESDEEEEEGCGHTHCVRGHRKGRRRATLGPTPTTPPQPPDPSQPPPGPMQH

How the values were obtained:
[1] = molecular target: PP1α7-330 (UniProt P62136); assay: SPR; His6-PP1 captured on a Ni-NTA sensor chip (NiHC200M), I3 variants injected; 25 °C; 20 mM Tris pH 8.0, 500 mM NaCl, 1 mM MnCl2, 0.5 mM TCEP, 0.05% Tween-20; one-to-one one-state or one-to-one two-state fit; both purified
[2] = molecular target: His6-PP1α_(7-330) (UniProt P62136 7-330); assay: SPR; His6-PP1 captured on a Ni-NTA sensorchip (NiHC200M), I3 variants injected; 25 °C; 20 mM Tris pH 8.0, 500 mM NaCl, 1 mM MnCl2, 0.5 mM TCEP, 0.05% Tween-20; one-to-one one state or one-to-one two state model; both purified
[3] = molecular target: PP1α7-330 (UniProt P62136); assay: SPR; His6-PP1 captured on Ni-NTA chip (NiHC200M), I3 variants injected; 25 °C; 20 mM Tris pH 8.0, 500 mM NaCl, 1 mM MnCl2, 0.5 mM TCEP, 0.05% Tween-20; one-to-one one state or one-to-one two state model (TraceDrawer); both purified

EEEEEGCGHTHCV (peptide, UniProt O60927 79-91) [I379-91 peptide]
binding [1]: no binding (tested: 10000 nM)

EEEEEGCGHTHCV (peptide, UniProt O60927 79-91) [I3_(79-91) peptide]
binding [2]: no binding
binding [3]: no binding (tested: 10000 nM)
